Values of other authors, collected in patent US20260251654A1, “ASSAYS AND REAGENTS FOR THE DETECTION OF SOLUBLE GP120” (VAL-CHUM, LIMITED PARTNERSHIP, priority 2023, published 2026).
At least one structure is not confirmed: it was looked up by name or label, or the drawing left a doubt.

Test system: gp120 shed from infected cells interacting with CD4 on uninfected bystander CD4+ T cells
Settings: in vitro

COc1cnc(-n2cnc(C)n2)c2[nH]cc(C(=O)C(=O)N3CCN(C(=O)c4ccccc4)CC3)c12 [temsavir, Temsavir]
ADCC responses against uninfected bystander CD4+ T cells: protecting uninfected bystander CD4+ T cells from ADCC responses | gp120-induced cytokine burst: inhibiting gp120-induced cytokine burst | immunoregulatory activities of sgp120: block the immunoregulatory activities of sg120 in vitro
